Results: patent publication US20050266509A1, “Interaction of NMDA receptor with protein tyrosine phosphatase” (AGY Therapeutics, Inc., priority 2003, published 2005)
At least one compound was matched to its structure with a doubt left.

How the values were obtained:
[1] = tested on: mice; assay: Prepulse inhibition of acoustic startle (PPI) model; format: in vivo; conditions: 4 mg/kg, 30 min prior to testing
[2] = tested on: mice; assay: Amphetamine-induced hyperactivity model (open field); conditions: 4 mg/kg, 30 minutes prior to amphetamine

CN1CCN(C2=Nc3cc(Cl)ccc3Nc3ccccc32)CC1 [clozapine]
PPI versus vehicle [1]: significantly higher
Startle response versus vehicle [1]: lower
Amphetamine locomotor stimulant effect (total distance in open field) [2]: significantly attenuated
